According to article doi:10.1101/2023.09.17.558134 (bioRxiv, 2023):
Results are given in words; binding and its absence hold for the method and conditions named. Binding seen in cells or lysates may run through a third protein. These calls come from enrichment with a bait or labelling near it, and not all partners need be listed.

Protein sequences, listed by entry. Tags and fused reporters are not part of them.
UniProt P0A8T7, whole entry: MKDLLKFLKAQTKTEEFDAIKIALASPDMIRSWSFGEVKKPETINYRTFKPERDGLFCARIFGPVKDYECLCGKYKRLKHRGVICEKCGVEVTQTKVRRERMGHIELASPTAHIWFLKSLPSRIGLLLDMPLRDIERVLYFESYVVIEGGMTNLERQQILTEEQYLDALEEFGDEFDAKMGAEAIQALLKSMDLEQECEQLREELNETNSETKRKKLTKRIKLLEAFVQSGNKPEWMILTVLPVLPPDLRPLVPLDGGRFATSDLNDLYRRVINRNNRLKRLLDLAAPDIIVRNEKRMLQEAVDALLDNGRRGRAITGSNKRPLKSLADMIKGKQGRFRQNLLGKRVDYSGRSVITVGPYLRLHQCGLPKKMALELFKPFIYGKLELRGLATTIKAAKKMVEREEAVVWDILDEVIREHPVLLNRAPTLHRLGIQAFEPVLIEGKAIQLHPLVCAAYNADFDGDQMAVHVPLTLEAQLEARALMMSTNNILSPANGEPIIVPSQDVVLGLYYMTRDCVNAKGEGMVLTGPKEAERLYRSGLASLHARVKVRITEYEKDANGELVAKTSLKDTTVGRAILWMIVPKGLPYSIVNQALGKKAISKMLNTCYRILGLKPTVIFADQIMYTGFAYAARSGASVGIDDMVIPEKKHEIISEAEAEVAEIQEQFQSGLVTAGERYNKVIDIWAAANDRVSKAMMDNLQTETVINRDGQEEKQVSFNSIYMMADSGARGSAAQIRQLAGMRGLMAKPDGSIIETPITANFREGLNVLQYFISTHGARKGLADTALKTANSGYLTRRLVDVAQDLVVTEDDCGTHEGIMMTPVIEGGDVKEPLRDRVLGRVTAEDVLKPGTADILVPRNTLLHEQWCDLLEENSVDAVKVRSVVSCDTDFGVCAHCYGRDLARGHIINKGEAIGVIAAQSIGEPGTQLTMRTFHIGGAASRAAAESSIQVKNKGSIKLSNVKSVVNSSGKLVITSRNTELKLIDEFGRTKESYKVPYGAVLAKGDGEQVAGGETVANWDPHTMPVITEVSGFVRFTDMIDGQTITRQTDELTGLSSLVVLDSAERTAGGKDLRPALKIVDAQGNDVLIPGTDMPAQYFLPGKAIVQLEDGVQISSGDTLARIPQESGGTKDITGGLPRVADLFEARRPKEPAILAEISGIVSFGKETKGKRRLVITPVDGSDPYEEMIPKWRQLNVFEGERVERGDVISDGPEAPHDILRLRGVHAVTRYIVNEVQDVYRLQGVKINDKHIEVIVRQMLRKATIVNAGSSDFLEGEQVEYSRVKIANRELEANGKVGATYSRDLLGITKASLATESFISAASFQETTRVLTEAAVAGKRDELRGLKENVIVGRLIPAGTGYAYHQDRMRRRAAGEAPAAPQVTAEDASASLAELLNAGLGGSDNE

Target: RNA polymerase β′ subunit (RpoC), chromosomally 3×FLAG-tagged (E. coli) (UniProt P0A8T7)
Assay: affinity purification with mass spectrometry

binding: binds
B1: sigma factor FecI, endogenous (protein, UniProt P23484 1-173)
chain: MSDRATTTASLTFESLYGTHHGWLKSWLTRKLQSAFDADDIAQDTFLRVMVSETLSTIRDPRSFLCTIAKRVMVDLFRRNALEKAYLEMLALMPEGGAPSPEERESQLETLQLLDSMLDGLNGKTREAFLLSQLDGLTYSEIAHKLGVSISSVKKYVAKAVEHCLLFRLEYGL
